# Results: the supplement of paper PMC11348887
# Structures can show the parent of a compound that is named as a salt. This is one part of the list. Most values lie at the level of the controls, where differences are scatter.
# Assays:
# Details in all cases: 5 µM; treatment: days 7-14 after plating, readout day 21
# [1] = tested on: hPSC-derived cortical neurons (WA09); assay: nucleus area z-score vs screen plate; higher = larger nuclei (more mature)
# [2] = tested on: hPSC-derived cortical neurons (WA09); assay: total neurite length per nucleus (MAP2) z-score; higher = more neurite growth
# [3] = tested on: hPSC-derived cortical neurons (WA09); assay: nucleus roundness z-score vs screen plate; higher = rounder nuclei (more mature)
# [4] = tested on: hPSC-derived cortical neurons (WA09); assay: KCl-induced FOS+/EGR-1+ double-positive nuclei fraction z-score (KCl minus unstimulated); higher = stronger activity-induced IEG response
Structure (SMILES),nucleus area z-score [1],total neurite length per nucleus (z-score) [2],nucleus roundness z-score [3],KCl-induced FOS+/EGR-1+ double-positive nuclei fraction z-score [4]
O=C(Oc1ccccc1C(=O)O)c1ccccc1O [Sasapyrine],0.36,0.441,0.312,0.594
CN(Cc1cnc2nc(N)nc(N)c2n1)c1ccc(C(=O)N[C@@H](CCC(=O)O)C(=O)O)cc1 [Methotrexate],0.723,0.47,-0.373,-0.21
COC(=O)C1=C(C)NC(C)=C([N+](=O)[O-])C1c1ccccc1C(F)(F)F (stereo not given),4.74,0.192,0.0703,1.97
CO/N=C(\C(=O)N[C@@H]1C(=O)N2C(C(=O)O)=C(CSC(=O)c3ccco3)CS[C@H]12)c1csc(N)n1 [Ceftiofur HCl],1.14,-0.754,0.37,-0.454
FC(F)(F)c1ccc(/C=C/c2nc(COc3ccc(CCCCn4ccnn4)cc3)co2)cc1 [Mubritinib (TAK 165)],-0.373,-0.118,0.207,-1.35
COc1cc(OC)c(C=C2C(=O)Nc3ccccc32)c(OC)c1,-5.58,-0.239,0.0792,-0.507
Nc1cccc(S(=O)(=O)N2CCCN(S(=O)(=O)c3ccc4c(c3)OCCO4)CC2)c1,-2.22,-2.16,-2.21,1.06
O=C1NC(=O)C(=Cc2ccc(-c3ccc(F)cc3)o2)S1 (stereo in doubt),-0.0673,-0.626,-0.172,-0.698
CC1=C(/C=C/C(C)=C/C=C/C(C)=C/C(=O)O)C(C)(C)CCC1 [Tretinoin],0.126,-1.02,-1.82,-1.13
Cc1ccsc1C(=CCCN1CCC[C@@H](C(=O)O)C1)c1sccc1C [Tiagabine hydrochloride],-0.447,-0.28,-0.428,0.00252

# Another view of 2 compounds above.
Structure (SMILES)	nucleus area z-score [1]	total neurite length per nucleus (z-score) [2]	nucleus roundness z-score [3]	KCl-induced FOS+/EGR-1+ double-positive nuclei fraction z-score [4]
O=C(Oc1ccccc1C(=O)O)c1ccccc1O [Sasapyrine]	0.36	0.441	0.312	0.594
CN(Cc1cnc2nc(N)nc(N)c2n1)c1ccc(C(=O)N[C@@H](CCC(=O)O)C(=O)O)cc1 [Methotrexate]	0.723	0.47	-0.373	-0.21
